Measured values reported in patent US20260053773A1, “PHARMACEUTICAL COMPOSITION AND USE THEREOF” (AUHUI TONGOO PHARMACEUTICAL TECHNOLOGY CO., LTD., priority 2022, published 2026).
Some of these results come from one statement about several compounds together.

System: HK-2 cells
Assay: Adhesion of COM crystals to HK-2 cells in vitro
Format: cell-based, human
Conditions: polyphenol used in combination with 200 μM CA
Excerpt: Studies have shown that reducing calcium oxalate crystallization, crystal-cell interactions, and cellular damage can prevent stone formation to some extent.

O=C(O)c1ccc(O)c(O)c1 [PrA, protocatechuic acid]
reduction of the amount of crystal adhesion: up to 50%
